From publication PMC12077520 come the findings set out here.

Chains of the proteins cited; added tags and fusions are not shown. Residues count along the entry.
UniProt Q15843, residues 1-76: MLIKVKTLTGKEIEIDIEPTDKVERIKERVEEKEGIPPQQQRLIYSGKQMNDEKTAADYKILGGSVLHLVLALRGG
UniProt P49792: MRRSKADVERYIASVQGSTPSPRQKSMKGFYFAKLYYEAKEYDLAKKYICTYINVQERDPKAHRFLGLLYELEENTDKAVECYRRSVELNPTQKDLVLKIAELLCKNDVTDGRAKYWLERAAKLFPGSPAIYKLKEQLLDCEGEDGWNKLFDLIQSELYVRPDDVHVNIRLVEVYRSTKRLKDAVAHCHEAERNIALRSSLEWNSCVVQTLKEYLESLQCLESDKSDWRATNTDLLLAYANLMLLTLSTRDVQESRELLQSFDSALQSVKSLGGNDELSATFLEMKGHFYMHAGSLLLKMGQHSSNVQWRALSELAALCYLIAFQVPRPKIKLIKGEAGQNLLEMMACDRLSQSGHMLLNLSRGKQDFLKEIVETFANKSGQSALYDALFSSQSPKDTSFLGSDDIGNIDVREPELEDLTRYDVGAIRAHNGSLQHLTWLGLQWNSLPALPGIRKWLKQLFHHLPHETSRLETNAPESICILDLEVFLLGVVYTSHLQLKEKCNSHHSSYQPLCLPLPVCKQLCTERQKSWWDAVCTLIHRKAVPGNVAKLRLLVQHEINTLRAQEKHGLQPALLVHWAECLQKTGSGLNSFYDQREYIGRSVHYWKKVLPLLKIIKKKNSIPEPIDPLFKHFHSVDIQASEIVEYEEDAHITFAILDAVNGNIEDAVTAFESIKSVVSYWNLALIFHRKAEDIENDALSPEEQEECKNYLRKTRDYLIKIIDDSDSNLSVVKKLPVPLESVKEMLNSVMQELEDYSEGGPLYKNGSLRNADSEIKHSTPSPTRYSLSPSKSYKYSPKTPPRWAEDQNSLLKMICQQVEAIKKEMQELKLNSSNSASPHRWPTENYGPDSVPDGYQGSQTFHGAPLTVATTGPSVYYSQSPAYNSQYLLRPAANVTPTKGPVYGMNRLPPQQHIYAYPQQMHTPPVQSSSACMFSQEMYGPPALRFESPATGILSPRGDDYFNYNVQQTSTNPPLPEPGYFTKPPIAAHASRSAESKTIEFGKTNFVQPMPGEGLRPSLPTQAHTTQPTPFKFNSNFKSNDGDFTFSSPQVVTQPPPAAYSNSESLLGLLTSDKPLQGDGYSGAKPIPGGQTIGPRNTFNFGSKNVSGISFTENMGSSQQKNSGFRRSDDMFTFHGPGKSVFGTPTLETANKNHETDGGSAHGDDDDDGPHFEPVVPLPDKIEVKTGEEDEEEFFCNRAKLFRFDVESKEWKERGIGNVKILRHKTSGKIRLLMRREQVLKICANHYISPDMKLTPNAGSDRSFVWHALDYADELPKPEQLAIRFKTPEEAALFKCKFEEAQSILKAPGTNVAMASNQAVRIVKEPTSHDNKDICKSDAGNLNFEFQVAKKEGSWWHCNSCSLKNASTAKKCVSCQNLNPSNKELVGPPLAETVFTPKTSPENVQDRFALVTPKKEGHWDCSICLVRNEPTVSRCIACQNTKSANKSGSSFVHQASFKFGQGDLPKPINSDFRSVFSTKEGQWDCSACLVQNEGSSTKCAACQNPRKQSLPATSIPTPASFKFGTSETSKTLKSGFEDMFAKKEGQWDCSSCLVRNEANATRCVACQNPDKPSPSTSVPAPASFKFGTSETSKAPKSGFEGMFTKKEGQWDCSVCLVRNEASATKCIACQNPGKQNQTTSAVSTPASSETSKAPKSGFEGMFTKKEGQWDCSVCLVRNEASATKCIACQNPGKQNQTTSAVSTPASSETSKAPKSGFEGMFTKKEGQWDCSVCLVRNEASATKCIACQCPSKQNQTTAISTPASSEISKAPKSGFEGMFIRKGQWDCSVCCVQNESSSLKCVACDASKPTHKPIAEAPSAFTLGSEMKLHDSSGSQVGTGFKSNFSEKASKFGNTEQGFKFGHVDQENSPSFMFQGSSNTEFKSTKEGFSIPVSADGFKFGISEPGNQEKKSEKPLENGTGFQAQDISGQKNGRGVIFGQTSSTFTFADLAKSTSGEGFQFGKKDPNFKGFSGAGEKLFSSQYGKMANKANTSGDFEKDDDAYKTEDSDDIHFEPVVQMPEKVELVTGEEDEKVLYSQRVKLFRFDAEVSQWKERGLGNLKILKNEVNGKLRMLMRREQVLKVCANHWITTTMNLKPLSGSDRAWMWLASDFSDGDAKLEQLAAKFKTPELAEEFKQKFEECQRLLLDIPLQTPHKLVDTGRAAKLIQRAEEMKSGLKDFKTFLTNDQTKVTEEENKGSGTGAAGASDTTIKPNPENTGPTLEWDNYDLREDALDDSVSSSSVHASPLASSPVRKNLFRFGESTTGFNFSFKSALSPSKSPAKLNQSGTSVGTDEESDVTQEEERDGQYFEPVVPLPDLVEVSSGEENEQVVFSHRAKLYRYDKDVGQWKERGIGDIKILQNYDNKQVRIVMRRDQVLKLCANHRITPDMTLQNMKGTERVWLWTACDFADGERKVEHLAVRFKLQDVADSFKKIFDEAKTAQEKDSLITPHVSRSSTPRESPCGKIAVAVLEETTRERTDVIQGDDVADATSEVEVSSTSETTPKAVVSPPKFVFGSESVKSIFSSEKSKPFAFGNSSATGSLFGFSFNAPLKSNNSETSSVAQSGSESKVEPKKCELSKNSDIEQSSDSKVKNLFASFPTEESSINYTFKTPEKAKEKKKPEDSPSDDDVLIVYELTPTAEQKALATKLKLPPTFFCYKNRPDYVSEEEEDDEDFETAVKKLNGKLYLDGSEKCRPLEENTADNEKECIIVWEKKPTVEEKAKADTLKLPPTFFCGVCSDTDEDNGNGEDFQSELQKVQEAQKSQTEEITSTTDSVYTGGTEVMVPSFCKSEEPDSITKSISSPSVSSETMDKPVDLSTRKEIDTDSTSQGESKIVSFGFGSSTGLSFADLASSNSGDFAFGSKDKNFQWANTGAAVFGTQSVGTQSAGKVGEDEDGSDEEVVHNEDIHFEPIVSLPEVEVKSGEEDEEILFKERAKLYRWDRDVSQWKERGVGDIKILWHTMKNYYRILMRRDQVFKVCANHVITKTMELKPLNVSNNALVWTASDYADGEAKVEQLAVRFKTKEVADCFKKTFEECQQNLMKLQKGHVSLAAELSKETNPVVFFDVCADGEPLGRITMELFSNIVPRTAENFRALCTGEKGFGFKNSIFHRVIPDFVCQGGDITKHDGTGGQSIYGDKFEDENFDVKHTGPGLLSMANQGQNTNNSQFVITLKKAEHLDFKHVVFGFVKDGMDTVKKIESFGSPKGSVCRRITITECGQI
UniProt Q9H4L4: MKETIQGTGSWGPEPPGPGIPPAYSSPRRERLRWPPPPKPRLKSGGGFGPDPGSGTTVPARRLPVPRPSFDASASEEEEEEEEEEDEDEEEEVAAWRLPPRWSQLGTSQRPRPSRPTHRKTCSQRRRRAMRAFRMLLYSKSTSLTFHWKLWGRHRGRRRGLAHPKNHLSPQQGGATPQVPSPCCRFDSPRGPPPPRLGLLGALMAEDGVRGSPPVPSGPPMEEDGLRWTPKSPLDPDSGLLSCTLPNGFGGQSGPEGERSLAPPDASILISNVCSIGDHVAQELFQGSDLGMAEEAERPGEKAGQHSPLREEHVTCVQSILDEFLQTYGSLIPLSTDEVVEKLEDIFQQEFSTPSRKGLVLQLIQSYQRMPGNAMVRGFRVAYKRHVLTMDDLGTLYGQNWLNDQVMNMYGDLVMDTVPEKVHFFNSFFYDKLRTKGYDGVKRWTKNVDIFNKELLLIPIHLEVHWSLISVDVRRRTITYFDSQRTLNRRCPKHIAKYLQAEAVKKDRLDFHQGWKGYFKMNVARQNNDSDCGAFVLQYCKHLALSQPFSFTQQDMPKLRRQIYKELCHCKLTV

Holding throughout (test): affinity purification with mass spectrometry; 100 ug His10-SUMO2/3 WT, IKR or QFI on Ni-NTA beads, incubated with whole-cell HeLa lysate 2 h at 4°C in 50 mM tris pH 7.5, 150 mM NaCl, 0.5% NP-40, 50 mM imidazole; eluted with 8 M urea; LC-MS/MS, label-free quantification against uncoated beads (t test, FDR 0.05), n = 4; only the target purified
The target of assay [1] is T1, His10-SUMO2 QFI (Q30A-F31A-I33A) (human (from the printed UniProt accession)) (UniProt P55854).
The target of assay [2] is T2, His10-SUMO2 IKR (I33A-K34A-R35A) (human (from the printed UniProt accession)) (UniProt P55854).
Assay [3] concerns the target T1, His10-SUMO2 QFI (Q30A-F31A-I33A) (human). This is another data set of the same source.
Assay [4] has as its target T2, His10-SUMO2 IKR (I33A-K34A-R35A) (human). The source holds these as a separate data set.

Read-outs that look alike come from different tables or passages of the source. No constants are given. Whether binding was seen depends on the method and setting. Binding seen in cells or lysates may run through a third protein. Here binding means that the protein was enriched with, or labelled near, the bait; the list need not be complete. No binding means not detected with the bait.

On to NEDD8 (from UniProt Q15843 1-76), for which the binding entry in assay [1] and in assay [2] was “no binding” throughout.
Consider RANBP2 (from UniProt P49792 1-3224), for which the binding result in assay [1] and in assay [2] was “no binding” each time.
In the case of “SENP3 (from UniProt Q9H4L4 1-574) (enzyme)”, the binding result in assay [1] is “no binding”; in assay [2], “binds”.

B1: PIAS3 (protein, UniProt Q9Y6X2 1-628)
chain: MAELGELKHMVMSFRVSELQVLLGFAGRNKSGRKHELLAKALHLLKSSCAPSVQMKIKELYRRRFPRKTLGPSDLSLLSLPPGTSPVGSPGPLAPIPPTLLAPGTLLGPKREVDMHPPLPQPVHPDVTMKPLPFYEVYGELIRPTTLASTSSQRFEEAHFTFALTPQQVQQILTSREVLPGAKCDYTIQVQLRFCLCETSCPQEDYFPPNLFVKVNGKLCPLPGYLPPTKNGAEPKRPSRPINITPLARLSATVPNTIVVNWSSEFGRNYSLSVYLVRQLTAGTLLQKLRAKGIRNPDHSRALIKEKLTADPDSEVATTSLRVSLMCPLGKMRLTVPCRALTCAHLQSFDAALYLQMNEKKPTWTCPVCDKKAPYESLIIDGLFMEILSSCSDCDEIQFMEDGSWCPMKPKKEASEVCPPPGYGLDGLQYSPVQGGDPSENKKKVEVIDLTIESSSDEEDLPPTKKHCSVTSAAIPALPGSKGVLTSGHQPSSVLRSPAMGTLGGDFLSSLPLHEYPPAFPLGADIQGLDLFSFLQTESQHYGPSVITSLDEQDALGHFFQYRGTPSHFLGPLAPTLGSSHCSATPAPPPGRVSSIVAPGGALREGHGGPLPSGPSLTGCRSDIISLD
On to B1, for which the binding entry in assay [3] and in assay [4] was “no binding” in each case.

B2: NFATC2IP (protein, UniProt Q8NCF5 1-419)
chain: MAEPVGKRGRWSGGSGAGRGGRGGWGGRGRRPRAQRSPSRGTLDVVSVDLVTDSDEEILEVATARGAADEVEVEPPEPPGPVASRDNSNSDSEGEDRRPAGPPREPVRRRRRLVLDPGEAPLVPVYSGKVKSSLRLIPDDLSLLKLYPPGDEEEAELADSSGLYHEGSPSPGSPWKTKLRTKDKEEKKKTEFLDLDNSPLSPPSPRTKSRTHTRALKKLSEVNKRLQDLRSCLSPKPPQGQEQQGQEDEVVLVEGPTLPETPRLFPLKIRCRADLVRLPLRMSEPLQSVVDHMATHLGVSPSRILLLFGETELSPTATPRTLKLGVADIIDCVVLTSSPEATETSQQLQLRVQGKEKHQTLEVSLSRDSPLKTLMSHYEEAMGLSGRKLSFFFDGTKLSGRELPADLGMESGDLIEVWG
In the case of B2, the binding result in assay [3] and in assay [4] was “no binding” in each case.

B3: RNF111 (protein, UniProt Q6ZNA4 1-994)
chain: MSQWTPEYNELYTLKVDMKSEIPSDAPKTQESLKGILLHPEPIGAAKSFPAGVEMINSKVGNEFSHLCDDSQKQEKEMNGNQQEQEKSLVVRKKRKSQQAGPSYVQNCVKENQGILGLRQHLGTPSDEDNDSSFSDCLSSPSSSLHFGDSDTVTSDEDKEVSVRHSQTILNAKSRSHSARSHKWPRTETESVSGLLMKRPCLHGSSLRRLPCRKRFVKNNSSQRTQKQKERILMQRKKREVLARRKYALLPSSSSSSENDLSSESSSSSSTEGEEDLFVSASENHQNNPAVPSGSIDEDVVVIEASSTPQVTANEEINVTSTDSEVEIVTVGESYRSRSTLGHSRSHWSQGSSSHASRPQEPRNRSRISTVIQPLRQNAAEVVDLTVDEDEPTVVPTTSARMESQATSASINNSNPSTSEQASDTASAVTSSQPSTVSETSATLTSNSTTGTSIGDDSRRTTSSAVTETGPPAMPRLPSCCPQHSPCGGSSQNHHALGHPHTSCFQQHGHHFQHHHHHHHTPHPAVPVSPSFSDPACPVERPPQVQAPCGANSSSGTSYHEQQALPVDLSNSGIRSHGSGSFHGASAFDPCCPVSSSRAAIFGHQAAAAAPSQPLSSIDGYGSSMVAQPQPQPPPQPSLSSCRHYMPPPYASLTRPLHHQASACPHSHGNPPPQTQPPPQVDYVIPHPVHAFHSQISSHATSHPVAPPPPTHLASTAAPIPQHLPPTHQPISHHIPATAPPAQRLHPHEVMQRMEVQRRRMMQHPTRAHERPPPHPHRMHPNYGHGHHIHVPQTMSSHPRQAPERSAWELGIEAGVTAATYTPGALHPHLAHYHAPPRLHHLQLGALPLMVPDMAGYPHIRYISSGLDGTSFRGPFRGNFEELIHLEERLGNVNRGASQGTIERCTYPHKYKKVTTDWFSQRKLHCKQDGEEGTEEDTEEKCTICLSILEEGEDVRRLPCMHLFHQVCVDQWLITNKKCPICRVDIEAQLPSES
As for B3, the binding result in assay [3] and in assay [4] was “no binding” throughout.

B4: TOPORS (protein, UniProt Q9NS56 1-1045)
chain: MGSQPPLGSPLSREEGEAPPPAPASEGRRRSRRVRLRGSCRHRPSFLGCRELAASAPARPAPASSEIMASAAKEFKMDNFSPKAGTSKLQQTVPADASPDSKCPICLDRFDNVSYLDRCLHKFCFRCVQEWSKNKAECPLCKQPFDSIFHSVRAEDDFKEYVLRPSYNGSFVTPDRRFRYRTTLTRERNASVYSPSGPVNRRTTTPPDSGVLFEGLGISTRPRDVEIPQFMRQIAVRRPTTADERSLRKIQEQDIINFRRTLYRAGARVRNIEDGGRYRDISAEFFRRNPACLHRLVPWLKRELTVLFGAHGSLVNIVQHIIMSNVTRYDLESQAFVSDLRPFLLNRTEHFIHEFISFARSPFNMAAFDQHANYDCPAPSYEEGSHSDSSVITISPDEAETQELDINVATVSQAPWDDETPGPSYSSSEQVHVTMSSLLNTSDSSDEELVTGGATSQIQGVQTNDDLNNDSDDSSDNCVIVGFVKPLAERTPELVELSSDSEDLGSYEKMETVKTQEQEQSYSSGDSDVSRCSSPHSVLGKDEQINKGHCDSSTRIKSKKEEKRSTSLSSPRNLNSSVRGDRVYSPYNHRHRKRGRSRSSDSRSQSRSGHDQKNHRKHHGKKRMKSKRSRSRESSRPRGRRDKKRSRTRDSSWSRRSQTLSLSSESTSRSRSRSSDHGKRRSRSRNRDRYYLRNNYGSRYKWEYTYYSRNKDRDGYESSYRRRTLSRAHYSRQSSSPEFRVQSFSERTNARKKNNHSERKYYYYERHRSRSLSSNRSRTASTGTDRVRNEKPGGKRKYKTRHLEGTNEVAQPSREFASKAKDSHYQKSSSKLDGNYKNESDTFSDSRSSDRETKHKRRKRKTRSLSVEIVYEGKATDTTKHHKKKKKKHKKKHKKHHGDNASRSPVVITIDSDSDKDSEVKEDTECDNSGPQDPLQNEFLAPSLEPFETKDVVTIEAEFGVLDKECDIATLSNNLNNANKTVDNIPPLAASVEQTLDVREESTFVSDLENQPSNIVSLQTEPSRQLPSPRTSLMSVCLGRDCDMS
On to B4, for which the binding entry in assay [3] and in assay [4] was “no binding” throughout.

B5: ZMYM5 (protein, UniProt Q9UJ78 1-669)
chain: MEKCSVGGLELTEQTPALLGNMAMATSLMDIGDSFGHPACPLVSRSRNSPVEDDDDDDDVVFIESIQPPSISAPAIADQRNFIFASSKNEKPQGNYSVIPPSSRDLASQKGNISETIVIDDEEDIETNGGAEKKSSCFIEWGLPGTKNKTNDLDFSTSSLSRSKTKTGVRPFNPGRMNVAGDLFQNGEFATHHSPDSWISQSASFPSNQKQPGVDSLSPVALLRKQNFQPTAQQQLTKPAKITCANCKKPLQKGQTAYQRKGSAHLFCSTTCLSSFSHKRTQNTRSIICKKDASTKKANVILPVESSKSFQEFYSTSCLSPCENNWNLKKGVFNKSRCTICSKLAEIRHEVSVNNVTHKLCSNHCFNKYRLANGLIMNCCEHCGEYMPSKSTGNNILVIGGQQKRFCCQSCINEYKQMMETKSKKLTASENRKRNAFREENEKQLYGSSNTLLKKIEGIPEKKEKTSQLQLSVECGTDTLLIQENVNLPPSSTSTIADTFQEQLEEKNFEDSIVPVVLSADPGTWPRILNIKQRDTLVENVPPQVRNFNFPKDNTGRKFSETYYTRILPNGEKTTRSWLLYSTSKDSVFCLYCKLFGEGKNQLKNENGCKDWQHLSHILSKHEESEMHVNNSVKYSKLKSDLKKNKAIDAAEHRLYENEKNDGVLLLYT
B5: the binding result in assay [3] and in assay [4] was “no binding” throughout.

B6: PIAS4 (protein, UniProt Q8N2W9 1-510)
chain: MAAELVEAKNMVMSFRVSDLQMLLGFVGRSKSGLKHELVTRALQLVQFDCSPELFKKIKELYETRYAKKNSEPAPQPHRPLDPLTMHSTYDRAGAVPRTPLAGPNIDYPVLYGKYLNGLGRLPAKTLKPEVRLVKLPFFNMLDELLKPTELVPQNNEKLQESPCIFALTPRQVELIRNSRELQPGVKAVQVVLRICYSDTSCPQEDQYPPNIAVKVNHSYCSVPGYYPSNKPGVEPKRPCRPINLTHLMYLSSATNRITVTWGNYGKSYSVALYLVRQLTSSELLQRLKTIGVKHPELCKALVKEKLRLDPDSEIATTGVRVSLICPLVKMRLSVPCRAETCAHLQCFDAVFYLQMNEKKPTWMCPVCDKPAPYDQLIIDGLLSKILSECEDADEIEYLVDGSWCPIRAEKERSCSPQGAILVLGPSDANGLLPAPSVNGSGALGSTGGGGPVGSMENGKPGADVVDLTLDSSSSSEDEEEEEEEEEDEDEEGPRPKRRCPFQKGLVPAC
As to B6, the binding entry in assay [3] and in assay [4] was “no binding” throughout.

B7: SAE1 (enzyme, UniProt Q9UBE0 1-346)
chain: MVEKEEAGGGISEEEAAQYDRQIRLWGLEAQKRLRASRVLLVGLKGLGAEIAKNLILAGVKGLTMLDHEQVTPEDPGAQFLIRTGSVGRNRAEASLERAQNLNPMVDVKVDTEDIEKKPESFFTQFDAVCLTCCSRDVIVKVDQICHKNSIKFFTGDVFGYHGYTFANLGEHEFVEEKTKVAKVSQGVEDGPDTKRAKLDSSETTMVKKKVVFCPVKEALEVDWSSEKAKAALKRTTSDYFLLQVLLKFRTDKGRDPSSDTYEEDSELLLQIRNDVLDSLGISPDLLPEDFVRYCFSEMAPVCAVVGGILAQEIVKALSQRDPPHNNFFFFDGMKGNGIVECLGPK
With B7, the binding entry in assay [3] and in assay [4] was “binds” throughout.
